Measured values from patent US20200399643.

Molecular target: T1, p38γ (MAPK12) (Homo sapiens) (UniProt P53778)
T1 sequence (limits assumed): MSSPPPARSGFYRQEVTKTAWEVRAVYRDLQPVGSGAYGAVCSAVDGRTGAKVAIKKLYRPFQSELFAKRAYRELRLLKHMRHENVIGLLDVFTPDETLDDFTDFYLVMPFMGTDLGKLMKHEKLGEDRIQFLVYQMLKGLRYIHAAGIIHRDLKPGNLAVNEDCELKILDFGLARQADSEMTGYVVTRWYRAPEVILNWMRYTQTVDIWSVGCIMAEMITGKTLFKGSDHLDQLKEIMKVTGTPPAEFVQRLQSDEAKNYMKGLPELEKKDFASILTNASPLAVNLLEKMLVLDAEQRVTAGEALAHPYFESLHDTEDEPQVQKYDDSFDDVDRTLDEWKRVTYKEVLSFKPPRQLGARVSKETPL
Assay: inhibition of the protein
Conditions: irrelevant control oligonucleotide used as reference in ADP-Glo assay; purified recombinant protein; protein details: human recombinant, Promega; dose not given here

## GGGAGACAAGAAUAAACGCUCAAGAGAGUGGUAAAGCUGUCGUUGGUCUUCCAUUAGAGCCCGUUCGACAGGAGGCUCACAACAGGC [IRRE1]
  functional effect of the aptamer: not active

## GGGAGACAAGAAUAAACGCUCAAGCUUGAGGGUAGCUUUAGUUGGUCUCCGACAGAGCCUCUGUUCGACAGGAGGCUCACAACAGGC [IRRE2]
  functional effect of the aptamer: not active

A negative result means that nothing was seen under these conditions. Protein sequences can lack the tags named with them.
